Source: patent US20200131558A1, “PAPER-BASED ASSAY FOR ANTIMICROBIAL RESISTANCE” (Colorado State University Research Foundation, priority 2017, published 2020)

Test system: β-lactamase
Assay: Nitrocefin concentration optimization on paper (color intensity change)

O=C(Cc1cccs1)N[C@@H]1C(=O)N2C(C(=O)O)=C(/C=C/c3ccc([N+](=O)[O-])cc3[N+](=O)[O-])CS[C@H]12 [nitrocefin]
color intensity change (5 μL of 1 mM nitrocefin dried on paper, 1 U/mL β-lactamase for 30 min): 71% | color intensity change (nitrocefin in solution, 100 U/mL β-lactamase, 1 mM nitrocefin): 64%
